PubChem BioAssay AID1159578 | Peter MacCallum Cancer Centre | 2015
Here is one part, drawn at random, of about 18,000 reagents. In the full data, about 1,030 (5.7%) were called active. 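Inactive calls also include pools with fewer than 3300 nuclei, whose migration was not assessed.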 Raw values vary from plate to plate and are shown uncorrected. Reagent sequences are not shown.

Purpose: 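Genome-wide hunt for genes controlling movement of lymphatic endothelial cells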 (primary screen)
System: human lymphatic endothelial cells
Reagents: siRNA pool against human genes, 40 nM
Duration: 48 h after transfection
Measurement: 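Cells stained with dye and imaged after a scratch; covered wound area and nuclei counted, duplicates averaged, migration set against mock wells and turned into a robust z-score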
Scale: migration robust z-score: higher = faster migration into the scratch; migration relative to mock: higher = more scratch area covered than mock; nuclei per well: higher = more cells in the well
Hit rule: 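Pools averaging fewer than 3300 nuclei are never called; remaining pools count as changed when migration robust z lies outside -2 to 2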
Meaning of the calls: active = migration changed; inactive = no migration change, or too few cells

no.	gene symbol	migration robust z-score	migration class with cell-count check	migration relative to mock	nuclei per well, duplicate mean	Call
1	KRTAP10-7 (keratin associated protein 10-7)	0.04	migration z between -2 and 2; enough cells	0.9	7270	inactive
2	TEDC2 (tubulin epsilon and delta complex 2)	-4.21	under 3300 nuclei; migration not judged	-0.18	2342	inactive
3	MAS1 (MAS1 proto-oncogene, G protein-coupled receptor)	1.02	migration z between -2 and 2; enough cells	1	6168	inactive
4	MATN4 (matrilin 4)	-1.03	migration z between -2 and 2; enough cells	0.62	4914	inactive
5	RPL15 (ribosomal protein L15)	-2.24	migration z below -2; enough cells	0.3	4928	active
6	UTY	1.57	migration z between -2 and 2; enough cells	1.29	6088	inactive
7	TNNI3K (TNNI3 interacting kinase)	0.42	migration z between -2 and 2; enough cells	0.88	6150	inactive
8	ASNS (asparagine synthetase (glutamine-hydrolyzing))	0.39	migration z between -2 and 2; enough cells	0.88	6004	inactive
9	DDX46 (DEAD-box helicase 46)	-1.64	migration z between -2 and 2; enough cells	0.49	4844	inactive
10	GARIN2 (golgi associated RAB2 interactor family member 2)	0.92	migration z between -2 and 2; enough cells	1.12	6124	inactive
11	ZFR (zinc finger RNA binding protein)	-1.33	migration z between -2 and 2; enough cells	0.54	6836	inactive
12	CLIC6 (CLIC family member 6)	0.39	migration z between -2 and 2; enough cells	0.88	5443	inactive
13	ALG8 (ALG8 alpha-1,3-glucosyltransferase)	0.42	migration z between -2 and 2; enough cells	0.88	5974	inactive
14	CTSG (cathepsin G)	0.28	migration z between -2 and 2; enough cells	0.86	5595	inactive
15	OR52B4 (olfactory receptor family 52 subfamily B member 4)	-0.01	migration z between -2 and 2; enough cells	0.89	6172	inactive
16	IL11RA (interleukin 11 receptor subunit alpha)	0.13	migration z between -2 and 2; enough cells	0.83	6842	inactive
17	HMBS (hydroxymethylbilane synthase)	-0.02	migration z between -2 and 2; enough cells	0.8	5306	inactive
18	GOLGA6L9 (golgin A6 family like 9)	0.8	migration z between -2 and 2; enough cells	1.1	6361	inactive
19	H1-1 (H1.1 linker histone, cluster member)	-1.84	migration z between -2 and 2; enough cells	0.4	3816	inactive
20	TMEM39A (transmembrane protein 39A)	-0.57	migration z between -2 and 2; enough cells	0.74	5653	inactive
21	FJX1 (four-jointed box kinase 1)	-0.56	migration z between -2 and 2; enough cells	0.74	4922	inactive
22	TBC1D10B (TBC1 domain family member 10B)	-0.3	migration z between -2 and 2; enough cells	0.8	5392	inactive
23	OR5B2 (olfactory receptor family 5 subfamily B member 2)	-0.52	migration z between -2 and 2; enough cells	0.75	5186	inactive
24	CDH5 (cadherin 5)	-0.66	migration z between -2 and 2; enough cells	0.72	4857	inactive
25	IL17REL (interleukin 17 receptor E like)	0.17	migration z between -2 and 2; enough cells	0.93	5602	inactive
26	DRC10 (dynein regulatory complex subunit 10)	2.69	migration z above 2; enough cells	1.58	7354	active
27	MED19 (mediator complex subunit 19)	-1.83	migration z between -2 and 2; enough cells	0.42	4160	inactive
28	C2orf78 (chromosome 2 open reading frame 78)	0.38	migration z between -2 and 2; enough cells	0.98	6968	inactive
29	FYRD1 (FYRN and FYRC domains INO80 complex interactor 1)	-0.4	migration z between -2 and 2; enough cells	0.78	6020	inactive
30	DNAI2 (dynein axonemal intermediate chain 2)	0.56	migration z between -2 and 2; enough cells	1.03	6276	inactive
31	NSUN7 (NOP2/Sun RNA methyltransferase family member 7)	0.95	migration z between -2 and 2; enough cells	1.12	4311	inactive
32	OPHN1 (oligophrenin 1)	-1.19	migration z between -2 and 2; enough cells	0.57	5418	inactive
33	CISH (cytokine inducible SH2 containing protein)	-0.5	migration z between -2 and 2; enough cells	0.71	5507	inactive
34	USP31 (ubiquitin specific peptidase 31)	-0.52	migration z between -2 and 2; enough cells	0.7	6670	inactive

Entries listed above marked active (2):
gene symbol	migration robust z-score	migration class with cell-count check	migration relative to mock	nuclei per well, duplicate mean	Call
RPL15 (ribosomal protein L15)	-2.24	migration z below -2; enough cells	0.3	4928	active
DRC10 (dynein regulatory complex subunit 10)	2.69	migration z above 2; enough cells	1.58	7354	active

The listing continues:
no.	gene symbol	migration robust z-score	migration class with cell-count check	migration relative to mock	nuclei per well, duplicate mean	Call
35	ATG12 (autophagy related 12)	-7.94	migration z below -2; enough cells	-0.72	3834	active
36	SLC20A1	0.52	migration z between -2 and 2; enough cells	0.9	5534	inactive
37	QNG1 (Q-nucleotide N-glycosylase 1)	1.74	migration z between -2 and 2; enough cells	1.34	4646	inactive
38	GOLGA2P5 (GOLGA2 pseudogene 5)	0.32	migration z between -2 and 2; enough cells	0.96	5982	inactive
39	CHST9 (carbohydrate sulfotransferase 9)	-2.8	under 3300 nuclei; migration not judged	0.26	1911	inactive
40	ZNFX1 (zinc finger NFX1-type containing 1)	0.88	migration z between -2 and 2; enough cells	0.98	6036	inactive
41	ATM (ATM serine/threonine kinase)	-2.42	migration z below -2; enough cells	0.34	4216	active
42	OPTC (opticin)	-2.09	under 3300 nuclei; migration not judged	0.34	2723	inactive
43	RUSF1 (RUS family member 1)	0.64	migration z between -2 and 2; enough cells	1.05	5221	inactive
44	NAT16 (N-acetyltransferase 16 (putative))	-1.15	migration z between -2 and 2; enough cells	0.59	5868	inactive
45	AGA (aspartylglucosaminidase)	1.09	migration z between -2 and 2; enough cells	1.02	5521	inactive
46	AIPL1 (AIP like 1 HSP90 co-chaperone)	-0.08	migration z between -2 and 2; enough cells	0.79	3592	inactive
47	CFAP161 (cilia and flagella associated protein 161)	0.78	migration z between -2 and 2; enough cells	1.08	5142	inactive
48	GNG13 (G protein subunit gamma 13)	-1.29	migration z between -2 and 2; enough cells	0.55	4871	inactive
49	TSPAN12 (tetraspanin 12)	-0.56	migration z between -2 and 2; enough cells	0.74	5349	inactive
50	NXF5 (nuclear RNA export factor 5)	0.29	migration z between -2 and 2; enough cells	0.96	3305	inactive
51	C3orf22 (chromosome 3 open reading frame 22)	-0.79	migration z between -2 and 2; enough cells	0.68	4944	inactive
52	MACO1 (macoilin 1)	0.58	migration z between -2 and 2; enough cells	1.04	6446	inactive
53	SLC35F6	-0.24	migration z between -2 and 2; enough cells	0.82	5684	inactive
54	RBM41 (RNA binding motif protein 41)	0.97	migration z between -2 and 2; enough cells	1.14	6178	inactive
55	TAFA2 (TAFA chemokine like family member 2)	1.45	migration z between -2 and 2; enough cells	1.26	6100	inactive
56	ZBTB43 (zinc finger and BTB domain containing 43)	-0.81	migration z between -2 and 2; enough cells	0.68	5358	inactive
57	RPA4 (replication protein A4)	1.44	migration z between -2 and 2; enough cells	1.26	5670	inactive
